# Library screen at single concentrations

Protein sequences, listed by entry. Tags and fused reporters are not part of them. Residues count along the entry.
UniProt Q4DA54, 1-478: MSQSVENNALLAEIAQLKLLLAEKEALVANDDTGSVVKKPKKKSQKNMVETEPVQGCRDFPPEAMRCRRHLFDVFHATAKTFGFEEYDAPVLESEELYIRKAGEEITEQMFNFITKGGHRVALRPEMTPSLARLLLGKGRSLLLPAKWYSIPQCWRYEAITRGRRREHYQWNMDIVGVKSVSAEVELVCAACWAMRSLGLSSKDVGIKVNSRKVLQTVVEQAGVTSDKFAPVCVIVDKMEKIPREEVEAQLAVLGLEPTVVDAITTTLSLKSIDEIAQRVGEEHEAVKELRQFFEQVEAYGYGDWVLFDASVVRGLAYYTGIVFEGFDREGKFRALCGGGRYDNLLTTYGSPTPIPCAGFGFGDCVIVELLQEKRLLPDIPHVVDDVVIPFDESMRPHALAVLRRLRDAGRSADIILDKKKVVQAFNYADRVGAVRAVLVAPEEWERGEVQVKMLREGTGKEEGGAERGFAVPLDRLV
UniProt A4I591, 1-473: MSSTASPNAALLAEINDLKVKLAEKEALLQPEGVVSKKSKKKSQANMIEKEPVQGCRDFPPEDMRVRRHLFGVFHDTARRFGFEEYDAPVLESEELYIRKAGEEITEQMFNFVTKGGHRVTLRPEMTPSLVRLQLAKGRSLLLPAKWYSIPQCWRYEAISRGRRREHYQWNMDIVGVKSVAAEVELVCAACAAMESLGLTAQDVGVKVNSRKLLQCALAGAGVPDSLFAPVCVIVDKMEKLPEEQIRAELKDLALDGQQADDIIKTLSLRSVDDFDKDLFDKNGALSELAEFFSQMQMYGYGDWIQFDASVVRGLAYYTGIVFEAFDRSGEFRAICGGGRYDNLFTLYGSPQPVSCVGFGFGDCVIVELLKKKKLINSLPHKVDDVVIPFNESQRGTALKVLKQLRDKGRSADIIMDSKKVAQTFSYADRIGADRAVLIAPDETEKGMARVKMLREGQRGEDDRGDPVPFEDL
UniProt Q8IDJ8, 1-583: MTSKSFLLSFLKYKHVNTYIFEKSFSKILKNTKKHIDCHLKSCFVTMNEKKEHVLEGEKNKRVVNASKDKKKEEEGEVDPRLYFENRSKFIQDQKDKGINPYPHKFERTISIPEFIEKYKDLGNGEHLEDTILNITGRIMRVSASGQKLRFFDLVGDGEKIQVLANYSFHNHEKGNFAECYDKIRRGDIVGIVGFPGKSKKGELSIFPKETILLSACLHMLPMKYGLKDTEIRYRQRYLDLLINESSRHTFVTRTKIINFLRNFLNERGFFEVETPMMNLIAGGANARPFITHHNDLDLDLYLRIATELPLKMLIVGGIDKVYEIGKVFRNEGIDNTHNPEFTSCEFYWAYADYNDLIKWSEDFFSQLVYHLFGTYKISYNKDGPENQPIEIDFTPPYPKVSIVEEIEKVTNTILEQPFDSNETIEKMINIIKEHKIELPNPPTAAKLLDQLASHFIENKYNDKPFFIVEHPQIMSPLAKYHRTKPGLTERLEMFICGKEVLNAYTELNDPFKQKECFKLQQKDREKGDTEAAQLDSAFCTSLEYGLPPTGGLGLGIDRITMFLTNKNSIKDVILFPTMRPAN
UniProt P9WNZ1, whole entry: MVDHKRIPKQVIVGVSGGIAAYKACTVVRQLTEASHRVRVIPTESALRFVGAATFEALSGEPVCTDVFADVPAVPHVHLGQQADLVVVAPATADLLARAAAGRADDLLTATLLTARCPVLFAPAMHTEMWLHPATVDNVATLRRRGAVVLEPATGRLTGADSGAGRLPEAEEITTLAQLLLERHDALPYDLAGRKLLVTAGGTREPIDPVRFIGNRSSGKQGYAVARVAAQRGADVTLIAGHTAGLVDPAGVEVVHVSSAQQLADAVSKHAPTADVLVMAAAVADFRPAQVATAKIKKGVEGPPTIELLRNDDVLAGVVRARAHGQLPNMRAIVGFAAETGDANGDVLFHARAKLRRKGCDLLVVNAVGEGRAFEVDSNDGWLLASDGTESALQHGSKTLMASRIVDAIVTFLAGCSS

Measurements from “University of Dundee, Small-Polar-MMV Screening Library” (2021), ChEMBL document CHEMBL3988442.

TcHisRS: 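Histidine-tRNA ligase, Trypanosoma cruzi CL Brener (UniProt Q4DA54). Enzyme assay of histidyl-tRNA synthetase; the read-out is not stated. Tested at 30 µM. Higher reads as stronger inhibition (inferred: compounds with an IC50 in retests scored well above the rest). About 69,000 compounds were tested under these conditions; 0.045% (about 31) showed 50% or more at least once.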
LiHisRS: 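Enzyme assay of histidyl-tRNA synthetase; the read-out is not stated. Target: Histidine-tRNA ligase, Leishmania infantum (UniProt A4I591). Concentration: 30 µM. Direction is inferred from retests: higher values go with stronger inhibition. The assay is labelled LdHisRS but filed under L. infantum. Size under these conditions: about 69,000 compounds, about 410 of them at 50% or above in at least one test.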
Toxoplasma: 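Assay of Toxoplasma gondii numbers, read through their beta-galactosidase reporter with a colour substrate. Compounds at 10 µM. Higher reads as fewer parasites (inferred from which compounds were picked for retests). Size under these conditions: about 67,000 compounds, about 260 of them at 50% or above in at least one test.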
PfKRS1: 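Lysine-tRNA ligase, Plasmodium falciparum 3D7 (UniProt Q8IDJ8). Enzyme assay of the cytosolic lysyl-tRNA synthetase in 384-well plates, read by luminescence. Tested at 30 µM. Direction is inferred from only a few compounds that gave an IC50; most scored high, so higher reads as stronger inhibition. Size under these conditions: about 69,000 compounds, about 49 of them at 50% or above in at least one test.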
CoaBC: 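Coenzyme A biosynthesis protein CoaBC, Mycobacterium tuberculosis (UniProt P9WNZ1). Enzyme assay of CoaBC with a phosphate dye (Biomol Green) read at 650 nm. Concentration: 30 µM. Higher reads as stronger inhibition, judged from the few compounds that gave an IC50. Most strong results did not repeat in a second test. About 67,000 compounds were tested under these conditions; 0.06% (about 40) showed 50% or more at least once.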

Each number is a percent effect as filed. How 0% and 100% were set is not recorded. Most values in the screen are low, and negative values occur. Compounds were drawn at random from those tested, without regard to their results.

- [H][C@@]12C[C@@H](C)O[C@]1([H])CN(S(=O)(=O)c1ccc(F)cc1)C2 | Toxoplasma: 1.072%
- CC(C)CCN1CCN(C(=O)c2c[nH]c(=O)[nH]2)CC1 | TcHisRS: 4.103%; LiHisRS: 14.29%; Toxoplasma: 2.816%; PfKRS1: 0.8648%; CoaBC: -0.4592%
- CC(C)c1cc(-c2nn3c(C(C)C)nnc3s2)[nH]n1 | TcHisRS: -0.9662%; LiHisRS: 5.833%; Toxoplasma: -2.755%; PfKRS1: 1.259%; CoaBC: 1.366%
- O=C(c1ccoc1)N1C[C@@H]2OCCN(c3ncccn3)[C@@H]2C1 | TcHisRS: 6.667%; LiHisRS: 15.28%; PfKRS1: 3.585%; CoaBC: 0.1233%
- CO[C@H]1CCN(S(=O)(=O)c2cn(C)cn2)[C@H]1Cc1cccnc1.O=C(O)C(F)(F)F.O=C(O)C(F)(F)F | Toxoplasma: 3.526%
- CN(CC1(O)CCN(c2ccccn2)C1)C(=O)Cc1ccsc1 (stereo unspecified) | TcHisRS: 6.742%; LiHisRS: 8%; Toxoplasma: -10.11%; PfKRS1: 2.396%; CoaBC: 4.337%
- c1cc(CO[C@@H]2CC[C@H]3[C@H]2OCCN3CC2CCOCC2)ccn1 | TcHisRS: 1.657%; LiHisRS: 7.519%; PfKRS1: 2.759%; CoaBC: -0.5141%
- CC(C)c1nsc(N2CCOCC2)n1 | TcHisRS: 1.22%; LiHisRS: 8.434%; Toxoplasma: -20.59%; PfKRS1: 7.778%; CoaBC: 1.392%
- CSC(C)(C)CNC(=O)Nc1cccc(-c2nccn2C)c1 | TcHisRS: 1.058%; LiHisRS: -6.061%; Toxoplasma: 12.27%; PfKRS1: 1.953%; CoaBC: -6.114%
- CC(C)c1nc(CN2CCCC2c2cnn(C)c2)cs1 (stereo unspecified) | TcHisRS: 8%; LiHisRS: 10.17%; Toxoplasma: 3.749%; PfKRS1: -0.7761%; CoaBC: -1.837%
- c1cc(CN2CCN3C[C@H](Oc4cncnc4)C[C@H]3C2)ccn1 | TcHisRS: 9.945%; LiHisRS: -6.306%; PfKRS1: 4.519%; CoaBC: 3.218%
- CCn1nc(C)c(CN(CCOC)C(=O)c2cnc(C)nc2O)c1C | TcHisRS: 9.091%; LiHisRS: 20%; Toxoplasma: -7.015%; PfKRS1: 0.5207%; CoaBC: -1.927%
- CC[C@@H]1C[C@H](C(F)(F)F)n2nc(C3CCN(S(=O)(=O)CC)CC3)cc2N1 | TcHisRS: 3.745%; LiHisRS: -4%; Toxoplasma: 4.179%; PfKRS1: -2.198%; CoaBC: -3.098%
- COC(=O)c1cccn1C1CCN(C(=O)c2ccc(C)[nH]c2=O)CC1 | TcHisRS: 4.023%; LiHisRS: 10.43%; Toxoplasma: 17.5%; PfKRS1: -0.7747%; CoaBC: -2.194%
- Cc1nc(NC(=O)CN2CCOC(Cn3cccn3)C2)sc1C (stereo unspecified) | TcHisRS: 0%; LiHisRS: -6.612%; Toxoplasma: 3.011%; PfKRS1: 16.37%; CoaBC: 3.24%
- O=C(CCn1ccc2ncccc2c1=O)N1CCCC1 | TcHisRS: 8.642%; LiHisRS: 11.76%; Toxoplasma: 0.2875%; PfKRS1: 1.34%; CoaBC: 3.067%
- COc1cccc(OCC2CCCN(Cc3ccncc3)C2)c1 (stereo unspecified) | TcHisRS: 9.052%; LiHisRS: 31.65%; Toxoplasma: -5.887%; PfKRS1: 9.057%; CoaBC: 5.196%
- O=C(O)c1ccc(C2CCCN(C(=O)c3ccc[nH]3)C2)cc1 (stereo unspecified) | TcHisRS: 6.468%; LiHisRS: 25.3%; Toxoplasma: -11.69%; PfKRS1: 1.742%; CoaBC: 3.388%
- CCSCC(C)NCc1nn(C)c2ccc(C)cc12 (stereo unspecified) | TcHisRS: 5.82%; LiHisRS: 5.882%; Toxoplasma: -0.1763%; PfKRS1: 12.81%; CoaBC: 1.222%
- COc1ccc(C(C)NCc2ccc(OC)c(OC)c2OC)cc1F (stereo unspecified) | TcHisRS: 10%; LiHisRS: 13.39%; PfKRS1: 8.486%; CoaBC: -29.75%
- COc1c(C2CCCN2C(=O)c2ccc3cc[nH]c3c2)c(C)nn1C (stereo unspecified) | TcHisRS: 5.66%; LiHisRS: 16%; Toxoplasma: 6.793%; PfKRS1: 4.397%; CoaBC: -3.077%
- COc1ccc(-c2cc(C3(O)CCOC(C)(C)C3)on2)cc1 (stereo unspecified) | TcHisRS: 2.591%; LiHisRS: 4.301%; Toxoplasma: -6.854%; PfKRS1: -3.049%; CoaBC: 1.235%
- CN(Cc1cc2ccccc2o1)S(C)(=O)=O | TcHisRS: 9.091%; LiHisRS: 8.901%; Toxoplasma: -0.1873%; PfKRS1: -0.5087%; CoaBC: -1.739%
- COC(=O)N1CCCCC1C(=O)N1CCN(c2ncccc2C)CC1 (stereo unspecified) | TcHisRS: 8.333%; LiHisRS: 13.95%; Toxoplasma: -10.18%; PfKRS1: 7.932%; CoaBC: -2.826%
- Cc1cnc(-c2nc(C3CCN(Cc4ccccc4C)CC3)no2)cn1 | TcHisRS: 3.448%; LiHisRS: 7.194%; Toxoplasma: -2.748%; PfKRS1: -0.1708%; CoaBC: 5.742%
- CC(C)C(C(=O)N1CCC2(CC1)CN(C)C(=O)O2)c1ccccc1 (stereo unspecified) | TcHisRS: 1.676%; LiHisRS: 7.895%; Toxoplasma: -1.451%; PfKRS1: 0.2719%; CoaBC: -8.065%
- Cc1cc(C)n(CC2CCCN2CCc2ccncc2)n1 (stereo unspecified) | TcHisRS: 0.7634%; LiHisRS: 21.28%; Toxoplasma: 21.13%; PfKRS1: -0.3751%; CoaBC: 10.62%
- NC(=O)CN1CCCN(C(=O)Cc2ccc3c(c2)OCCO3)CC1 | TcHisRS: 3.39%; LiHisRS: 5.172%; Toxoplasma: -7.872%; PfKRS1: 1.187%; CoaBC: 2.35%

The last 3 entries again:

structure	TcHisRS	LiHisRS	Toxoplasma	PfKRS1	CoaBC
CC(C)C(C(=O)N1CCC2(CC1)CN(C)C(=O)O2)c1ccccc1 (stereo unspecified)	1.676	7.895	-1.451	0.2719	-8.065
Cc1cc(C)n(CC2CCCN2CCc2ccncc2)n1 (stereo unspecified)	0.7634	21.28	21.13	-0.3751	10.62
NC(=O)CN1CCCN(C(=O)Cc2ccc3c(c2)OCCO3)CC1	3.39	5.172	-7.872	1.187	2.35